{"sequences": {"note": "Chains of the proteins cited; added tags and fusions are not shown. Lines headed by an entry give the natural chain unless they say otherwise; changes in a name come on top.", "UniProt Q3UYI5": "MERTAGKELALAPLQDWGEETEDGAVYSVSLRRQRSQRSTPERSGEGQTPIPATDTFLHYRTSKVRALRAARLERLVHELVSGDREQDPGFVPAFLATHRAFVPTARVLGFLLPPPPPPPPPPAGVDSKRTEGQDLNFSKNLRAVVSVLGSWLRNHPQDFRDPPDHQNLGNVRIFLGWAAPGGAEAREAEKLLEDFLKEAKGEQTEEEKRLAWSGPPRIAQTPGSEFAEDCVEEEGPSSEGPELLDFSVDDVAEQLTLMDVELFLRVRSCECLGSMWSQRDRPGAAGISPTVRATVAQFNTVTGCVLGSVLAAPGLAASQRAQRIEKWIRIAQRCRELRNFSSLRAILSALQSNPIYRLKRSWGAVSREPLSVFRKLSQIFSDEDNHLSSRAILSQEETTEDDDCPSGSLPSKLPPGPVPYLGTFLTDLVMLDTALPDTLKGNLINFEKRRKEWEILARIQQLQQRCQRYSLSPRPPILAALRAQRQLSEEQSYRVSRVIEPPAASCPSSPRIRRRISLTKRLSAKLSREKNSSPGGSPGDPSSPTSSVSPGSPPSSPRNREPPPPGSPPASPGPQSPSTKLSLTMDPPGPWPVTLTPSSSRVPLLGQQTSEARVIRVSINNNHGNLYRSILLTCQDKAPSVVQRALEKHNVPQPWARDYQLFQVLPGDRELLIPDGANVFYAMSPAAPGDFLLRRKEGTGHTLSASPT", "UniProt P70426": "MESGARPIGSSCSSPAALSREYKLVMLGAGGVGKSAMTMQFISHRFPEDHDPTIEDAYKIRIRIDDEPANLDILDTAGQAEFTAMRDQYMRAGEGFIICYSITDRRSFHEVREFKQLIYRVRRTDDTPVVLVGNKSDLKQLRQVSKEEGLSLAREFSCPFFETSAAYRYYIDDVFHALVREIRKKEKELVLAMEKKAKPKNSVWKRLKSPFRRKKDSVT"}, "source": "paper PMC11291910", "biological_target": "GST-RalGDS–like 3 (RGL3)-Ras–binding domain (UniProt Q3UYI5)", "assay": "pull-down; GST fusion on Glutathione Sepharose beads incubated 2 h at 4°C with 500 μg COS-7 cell lysate (25-mM Tris–HCl pH 7.2, 150-mM NaCl, 5-mM MgCl2, 1% NP-40, 5% glycerol); four washes; Western blotting; cells co-transfected with GFP, GFP-TBC1D10A/B/C WT or GAP-deficient mutants; only the target purified", "note": "No constants are given. Whether binding was seen depends on the method and setting. Binding seen in cells or lysates may run through a third protein. Binding calls can cover weak binding; strength is not graded here.", "data": [{"substance": "Myc-Rit1-WT (from UniProt P70426 1-219)", "values": [{"measurement": "binding", "result": "binds"}]}]}
